Measurements published in PMC11315935, “Multi-layered heterochromatin interaction as a switch for DIM2-mediated DNA methylation” (Nature Communications, 2024).
No constants are given. Whether binding was seen depends on the method and setting. Some entries that bind do so weakly or less than the wild type.

Sequences of proteins named here, by UniProt entry; tags and fusion partners are left off.
UniProt Q1K612: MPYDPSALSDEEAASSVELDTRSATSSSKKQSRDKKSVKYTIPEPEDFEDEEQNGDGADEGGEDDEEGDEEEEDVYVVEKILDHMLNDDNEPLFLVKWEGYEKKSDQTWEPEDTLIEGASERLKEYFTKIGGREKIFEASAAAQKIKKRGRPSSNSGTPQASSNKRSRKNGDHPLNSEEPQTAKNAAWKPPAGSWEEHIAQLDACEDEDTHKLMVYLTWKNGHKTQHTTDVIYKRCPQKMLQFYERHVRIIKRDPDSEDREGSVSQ

What was measured:
[1] = target: histone H3 peptide (residues 1-24) with H3K9me3, plus a C-terminal tryptophan (UniProt P68431); assay: ITC; 0.04-0.05 mM protein titrated with 0.5 mM histone peptide at 7 °C, 20 mM Tris-HCl pH 7.5, 100 mM NaCl, 1 mM β-mercaptoethanol; single-site fit; apparent; both purified
[2] = target: T1, DIM2 (residues 1-1242) W261A/W581A (Neurospora crassa) (UniProt Q3Y3Z1); assay: condition: 0.5 mM peptide titrated into 0.04-0.05 mM protein; ITC; 0.04-0.05 mM protein titrated with 0.5 mM histone peptide at 7 °C; 20 mM Tris-HCl pH 7.5, 100 mM NaCl, 1 mM beta-mercaptoethanol; MicroCal iTC200; fitted with single-site binding mode (apparent Kd for WT DIM2); both purified
T1 sequence: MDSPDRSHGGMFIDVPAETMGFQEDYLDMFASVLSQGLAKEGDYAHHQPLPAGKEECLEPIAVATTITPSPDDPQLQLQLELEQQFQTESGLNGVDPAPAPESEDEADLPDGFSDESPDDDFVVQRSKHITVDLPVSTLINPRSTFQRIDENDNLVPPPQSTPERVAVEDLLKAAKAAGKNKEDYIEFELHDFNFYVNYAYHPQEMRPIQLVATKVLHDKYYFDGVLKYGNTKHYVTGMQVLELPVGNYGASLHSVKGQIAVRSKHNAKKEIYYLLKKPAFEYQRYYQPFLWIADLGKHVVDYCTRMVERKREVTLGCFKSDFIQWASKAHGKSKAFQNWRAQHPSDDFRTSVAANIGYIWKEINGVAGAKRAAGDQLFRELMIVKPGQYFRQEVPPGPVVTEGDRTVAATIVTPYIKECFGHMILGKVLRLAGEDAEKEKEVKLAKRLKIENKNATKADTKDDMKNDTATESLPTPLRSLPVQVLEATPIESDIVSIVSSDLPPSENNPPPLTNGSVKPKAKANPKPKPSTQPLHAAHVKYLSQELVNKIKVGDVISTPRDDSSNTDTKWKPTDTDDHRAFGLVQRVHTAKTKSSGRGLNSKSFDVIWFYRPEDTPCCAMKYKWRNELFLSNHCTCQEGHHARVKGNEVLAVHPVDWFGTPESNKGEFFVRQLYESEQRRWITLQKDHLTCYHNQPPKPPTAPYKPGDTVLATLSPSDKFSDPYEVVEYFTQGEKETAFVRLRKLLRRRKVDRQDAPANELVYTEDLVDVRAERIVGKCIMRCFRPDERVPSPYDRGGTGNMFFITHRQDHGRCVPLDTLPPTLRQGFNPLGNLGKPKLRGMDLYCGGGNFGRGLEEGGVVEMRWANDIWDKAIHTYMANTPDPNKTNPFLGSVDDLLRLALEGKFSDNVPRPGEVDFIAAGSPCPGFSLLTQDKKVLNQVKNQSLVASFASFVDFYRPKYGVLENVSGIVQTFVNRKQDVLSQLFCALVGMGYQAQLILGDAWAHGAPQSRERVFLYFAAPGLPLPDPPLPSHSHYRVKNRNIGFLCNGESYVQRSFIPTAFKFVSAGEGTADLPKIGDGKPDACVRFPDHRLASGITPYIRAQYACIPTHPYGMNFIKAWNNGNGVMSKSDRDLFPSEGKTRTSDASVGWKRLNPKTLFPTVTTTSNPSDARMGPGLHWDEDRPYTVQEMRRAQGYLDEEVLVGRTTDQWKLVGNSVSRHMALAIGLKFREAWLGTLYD

| binding [1] | binding [2] | Substance |
| --- | --- | --- |
| binds | – | heterochromatin protein 1 (HP1), full length, residues 1-266 (from UniProt Q1K612 1-266) |
| – | no binding | histone H3 peptide (residues 1-24) harboring the H3K9me3 modification (from UniProt P68431 2-25) |
